Test results taken from PMC9270419.
No constants are given. Whether binding was seen depends on the method and setting. Binding seen in cells or lysates may run through a third protein. Some entries that bind do so weakly or less than the wild type.

The chains behind the UniProt entries cited, without tags or fusion partners. Where a name states a change or a piece, a line headed by the entry shows the natural chain unless it says otherwise.
UniProt P31749: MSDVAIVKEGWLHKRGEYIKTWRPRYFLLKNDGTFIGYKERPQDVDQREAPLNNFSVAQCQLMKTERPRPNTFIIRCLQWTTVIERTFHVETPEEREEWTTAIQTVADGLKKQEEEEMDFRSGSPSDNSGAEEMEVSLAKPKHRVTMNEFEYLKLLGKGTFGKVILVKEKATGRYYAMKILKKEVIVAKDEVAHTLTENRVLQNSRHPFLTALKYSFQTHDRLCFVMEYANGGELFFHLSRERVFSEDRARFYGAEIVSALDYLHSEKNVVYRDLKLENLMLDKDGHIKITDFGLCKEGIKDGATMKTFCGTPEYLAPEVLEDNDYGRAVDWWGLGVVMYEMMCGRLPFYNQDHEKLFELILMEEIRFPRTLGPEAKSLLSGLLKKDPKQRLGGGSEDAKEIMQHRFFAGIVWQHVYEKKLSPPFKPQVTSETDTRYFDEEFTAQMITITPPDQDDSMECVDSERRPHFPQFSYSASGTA

Columns and labels:
[1] = molecular target: HA-tagged AKT1 wild type (pCDNA3/Flag-HA-AKT1) (human), P31749; assay: co-IP; HA-tagged AKT1 wild type or R15K transfected into CHLA20 cells, with or without EGF stimulation; precipitated by HA beads, blots for PDK1 and SIN1; settings: remark: other sources report otherwise
[2] = molecular target: endogenous AKT1 (human (endogenous in SK-N-BE(2), NGP and CHLA20)), P31749; assay: co-IP; IP of endogenous AKT1, blots for PDK1 and SIN1; SK-N-BE(2) and NGP cells with or without PRMT5 knockdown; CHLA20 and NGP cells treated with DMSO or GSK591; settings: remark: other sources report otherwise
[3] = molecular target: HA-tagged AKT1-R15K mutant (pCDNA3/Flag-HA-AKT1-R15K) (human) (UniProt P31749); assay: co-IP; HA-tagged AKT1 wild type or R15K transfected into CHLA20 cells, with or without EGF stimulation; precipitated by HA beads, blots for PDK1 and SIN1

Row | binding [1] | binding [2] | binding [3] | Binder
1 | binds | binds |  | PDK1, O15530 1-556 (protein) MARTTSQLYDAVPIQSSVVLCSCPSPSMVRTQTESSTPPGIPGGSRQGPAMDGTAAEPRPGAGSLQHAQPPPQPRKKRPEDFKFGKILGEGSFSTVVLARELATSREYAIKILEKRHIIKENKVPYVTRERDVMSRLDHPFFVKLYFTFQDDEKLYFGLSYAKNGELLKYIRKIGSFDETCTRFYTAEIVSALEYLHGKGIIHRDLKPENILLNEDMHIQITDFGTAKVLSPESKQARANSFVGTAQYVSPELLTEKSACKSSDLWALGCIIYQLVAGLPPFRAGNEYLIFQKIIKLEYDFPEKFFPKARDLVEKLLVLDATKRLGCEEMEGYGPLKAHPFFESVTWENLHQQTPPKLTAYLPAMSEDDEDCYGNYDNLLSQFGCMQVSSSSSSHSLSASDTGLPQRSGSNIEQYIHDLDSNSFELDLQFSEDEKRLLLEKQAGGNPWHQFVENNLILKMGPVDKRKGLFARRRQLLLTEGPHLYYVDPVNKVLKGEIPWSQELRPEAKNFKTFFVHTPNRTYYLMDPSGNAHKWCRKIQEVWRQRYQSHPDAAVQ
2 |  |  | no binding | PDK1 (protein, UniProt O15530 1-556) MARTTSQLYDAVPIQSSVVLCSCPSPSMVRTQTESSTPPGIPGGSRQGPAMDGTAAEPRPGAGSLQHAQPPPQPRKKRPEDFKFGKILGEGSFSTVVLARELATSREYAIKILEKRHIIKENKVPYVTRERDVMSRLDHPFFVKLYFTFQDDEKLYFGLSYAKNGELLKYIRKIGSFDETCTRFYTAEIVSALEYLHGKGIIHRDLKPENILLNEDMHIQITDFGTAKVLSPESKQARANSFVGTAQYVSPELLTEKSACKSSDLWALGCIIYQLVAGLPPFRAGNEYLIFQKIIKLEYDFPEKFFPKARDLVEKLLVLDATKRLGCEEMEGYGPLKAHPFFESVTWENLHQQTPPKLTAYLPAMSEDDEDCYGNYDNLLSQFGCMQVSSSSSSHSLSASDTGLPQRSGSNIEQYIHDLDSNSFELDLQFSEDEKRLLLEKQAGGNPWHQFVENNLILKMGPVDKRKGLFARRRQLLLTEGPHLYYVDPVNKVLKGEIPWSQELRPEAKNFKTFFVHTPNRTYYLMDPSGNAHKWCRKIQEVWRQRYQSHPDAAVQ
